Experimental data as given in patent US11008339B2, “Substituted pyrazole compounds containing pyrimidine and preparation method and use thereof” (Shenyang Sinochem Agrochemicals R&D Co., Ltd., priority 2015, dated 2021).
Some results were stated once for a whole list of compounds, not compound by compound. For at least one compound, name, drawing or mass did not settle the structure.

Key:
[1] = test system: cucumber downy mildew; assay: Protective activity in vivo (whole plant spray) against cucumber downy mildew
Protocol: (§1) The method is as followed: The whole plant is used in this test. The compound is dissolved in a proper solvent to get mother solution. The proper solvent is selected from acetone, methanol, DMF and so on according to their dissolving capability to the sample. The volume rate of solvent and testing solution (v/v) is equal to or less than 5%. […] The testing solution is sprayed to the host plant by a special plant sprayer. The plant is inoculated with fungus after 24 hours. According to the infecting characteristic of fungus, the plant is stored in a humidity chamber and then transferred into greenhouse after infection is finished. And the other plants are placed in greenhouse directly.

[2] = test system: wheat powdery mildew; assay: Protective activity in vivo (whole plant spray) against wheat powdery mildew
Protocol: as §1

[3] = test system: Green peach aphids (Myzus Persicae Sulzer); assay: Bioactivity test against green peach aphid (airbrush foliar spray); assay type: in vivo; conditions: 600 ppm, death rate after 48 h
Protocol: (§2) Compounds were dissolved in mixed solvent (acetone:methanol=1:1), and diluted to required concentration with water containing 0.1% of tween 80.
(§3) Diamond back moth, armyworm, peach aphid and carmine spider mite were used as targets and the method of spraying by airbrush was used for determination of insecticidal biassays.
Method: Filter papers were put in culture dishes (Diameter=6 cm), and water was dripped on filter papers for preserving moisture. Green peach aphids (Myzus Persicae Sulzer) were maintained on cabbage. Leaves (Diameter=3 cm) of approximately 15-30 aphids were put in the culture dishes. Bioactivity tests were used the method of Airbrush Foliar Spray, pressure=10 psi (0.7 kg/cm2), spray volume=0.5 mL. The studies were conducted at […] 25±1 C in incubator cabinets with 60±5% RH. Survey the survival aphids after 48 h and calculate the death rates.

[4] = test system: carmine spider mite; assay: Bioactivity test against carmine spider mite (airbrush spray); assay type: in vivo; conditions: mortality after 72 hrs
Protocol: as §2, §3
The method: Broadbean shoots with two true leaves in pot were taken, the healthy adults of carmine spider mite were inoculated to the leaves. The adults were counted and then sprayed with airbrush at the pressure of 0.7 kg/cm^2 and at dose of 0.5 ml. 3 replicates were set for each treatment. And then they were maintained in standard observation room. Scores were conducted and mortalities were calculated after 72 hrs.

[5] = test system: cucumber gray mold; assay: Fungicidal activity in vitro (96-well, inhibition rate) against cucumber gray mold; assay type: cell-based; conditions: 25 ppm, 24 hours
[6] = test system: cucumber anthracnose; assay: Protective activity in vivo (whole plant spray) against cucumber anthracnose
Protocol: as §1

[7] = test system: corn rust; assay: Protective activity in vivo (whole plant spray) against corn rust
Protocol: as §1

CCc1ncnc(NCCOc2ccn(-c3c(Cl)cc(Cl)cc3Cl)n2)c1Cl [Compound 32-30]
more than 80%: control against cucumber downy mildew ([1]; 6.25 ppm) | control against cucumber downy mildew ([1]; 12.5 ppm) | control against cucumber downy mildew ([1]; 25 ppm) | control against cucumber downy mildew ([1]; 100 ppm) | control against wheat powdery mildew ([2]; 25 ppm) | control against wheat powdery mildew ([2]; 100 ppm) | control against wheat powdery mildew ([2]; 400 ppm) | control against Green Peach Aphid [3] | control against carmine spider mite ([4]; 600 ppm)

CCc1ncnc(NCCOc2ccn(-c3cccc(Br)c3)n2)c1Cl [Compound 32-33]
more than 80%: control against Green Peach Aphid [3]

Clc1ccc(-n2ccc(OCCNc3ncnc4ccccc34)n2)cc1 [Compound 40-19]
more than 80%: inhibition rate against cucumber gray mold [5] | control against cucumber downy mildew ([1]; 6.25 ppm) | control against cucumber downy mildew ([1]; 12.5 ppm) | control against cucumber downy mildew ([1]; 25 ppm) | control against cucumber downy mildew ([1]; 100 ppm) | control against cucumber downy mildew ([1]; 400 ppm) | control against wheat powdery mildew ([2]; 400 ppm) | control against cucumber anthracnose ([6]; 25 ppm) | control against cucumber anthracnose ([6]; 100 ppm) | control against cucumber anthracnose ([6]; 400 ppm)

Clc1csc2ncnc(NCCOc3ccn(-c4ccccc4)n3)c12 [Compound 42-1]
more than 80%: control against cucumber downy mildew ([1]; 25 ppm) | control against cucumber downy mildew ([1]; 100 ppm) | control against cucumber downy mildew ([1]; 400 ppm) | control against cucumber anthracnose ([6]; 25 ppm) | control against cucumber anthracnose ([6]; 100 ppm) | control against cucumber anthracnose ([6]; 400 ppm) | control against Green Peach Aphid [3]

Cc1ccc(-n2ccc(OCCNc3ncnc4scc(Cl)c34)n2)cc1 [Compound 42-57]
more than 80%: control against cucumber downy mildew ([1]; 400 ppm) | control against wheat powdery mildew ([2]; 100 ppm) | control against wheat powdery mildew ([2]; 400 ppm) | control against Green Peach Aphid [3] | control against carmine spider mite ([4]; 100 ppm) | control against carmine spider mite ([4]; 600 ppm)

Cc1ncnc(NCCOc2cnn(-c3ccc(F)cc3)c2)c1Cl [Compound 57-4]
more than 80%: inhibition rate against cucumber gray mold [5] | control against cucumber downy mildew ([1]; 400 ppm) | control against corn rust ([7]; 100 ppm) | control against corn rust ([7]; 400 ppm)

FC(F)c1ncnc(NCCOc2cnn(-c3ccc(Cl)cc3Cl)c2)c1Cl [Compound 59-21]
more than 80%: inhibition rate against cucumber gray mold [5] | control against wheat powdery mildew ([2]; 100 ppm) | control against wheat powdery mildew ([2]; 400 ppm) | control against corn rust ([7]; 400 ppm) | control against Green Peach Aphid [3] | control against carmine spider mite ([4]; 600 ppm)

Fc1ccc(-n2cc(OCCNc3ncnc4scc(Cl)c34)cn2)cc1 [Compound 68-4]
more than 80%: inhibition rate against cucumber gray mold [5] | control against cucumber downy mildew ([1]; 400 ppm) | control against corn rust ([7]; 400 ppm)
